Measurements: the supplement of paper PMC10849652
The list shows a part of the results.

Sequences of proteins named here, by UniProt entry; tags and fusion partners are left off. A change or cut given only in a name is not applied to a line headed by its entry.
UniProt Q9NQG7: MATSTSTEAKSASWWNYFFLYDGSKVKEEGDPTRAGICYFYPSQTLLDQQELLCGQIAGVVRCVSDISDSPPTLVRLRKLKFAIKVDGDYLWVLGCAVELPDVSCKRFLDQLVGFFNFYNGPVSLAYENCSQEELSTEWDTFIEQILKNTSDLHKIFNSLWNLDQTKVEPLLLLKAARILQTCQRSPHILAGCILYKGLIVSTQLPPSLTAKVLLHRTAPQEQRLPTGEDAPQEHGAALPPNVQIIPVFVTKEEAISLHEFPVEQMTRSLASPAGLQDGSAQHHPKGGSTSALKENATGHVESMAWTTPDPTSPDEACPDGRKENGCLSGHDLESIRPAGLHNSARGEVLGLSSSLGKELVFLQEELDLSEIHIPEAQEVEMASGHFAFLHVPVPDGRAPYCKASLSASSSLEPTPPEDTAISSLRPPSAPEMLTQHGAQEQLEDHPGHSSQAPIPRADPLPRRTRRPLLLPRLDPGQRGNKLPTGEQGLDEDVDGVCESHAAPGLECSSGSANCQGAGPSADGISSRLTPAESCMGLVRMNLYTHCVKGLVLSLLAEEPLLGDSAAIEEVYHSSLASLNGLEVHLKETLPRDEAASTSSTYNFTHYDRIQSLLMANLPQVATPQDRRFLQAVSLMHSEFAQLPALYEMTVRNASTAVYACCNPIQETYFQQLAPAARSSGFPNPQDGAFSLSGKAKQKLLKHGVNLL
UniProt Q96ED9: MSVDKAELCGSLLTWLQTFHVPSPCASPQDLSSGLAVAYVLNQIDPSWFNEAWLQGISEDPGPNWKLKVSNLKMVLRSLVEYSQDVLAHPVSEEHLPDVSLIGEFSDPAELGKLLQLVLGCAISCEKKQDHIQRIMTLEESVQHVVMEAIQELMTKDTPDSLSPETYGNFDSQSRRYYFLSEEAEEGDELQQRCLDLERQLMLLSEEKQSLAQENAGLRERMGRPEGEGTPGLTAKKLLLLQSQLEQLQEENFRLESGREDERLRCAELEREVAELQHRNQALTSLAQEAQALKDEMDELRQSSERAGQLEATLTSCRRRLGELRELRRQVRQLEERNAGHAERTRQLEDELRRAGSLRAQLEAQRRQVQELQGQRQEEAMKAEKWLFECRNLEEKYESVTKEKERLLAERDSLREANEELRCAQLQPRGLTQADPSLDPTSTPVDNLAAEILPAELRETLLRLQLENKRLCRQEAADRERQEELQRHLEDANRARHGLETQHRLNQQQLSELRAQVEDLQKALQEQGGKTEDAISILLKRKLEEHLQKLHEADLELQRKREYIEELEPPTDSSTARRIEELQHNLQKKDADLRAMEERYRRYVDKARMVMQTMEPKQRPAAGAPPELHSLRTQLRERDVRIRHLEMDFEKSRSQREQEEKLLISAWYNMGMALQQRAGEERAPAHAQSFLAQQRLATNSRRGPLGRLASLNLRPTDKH
UniProt Q9NSB8: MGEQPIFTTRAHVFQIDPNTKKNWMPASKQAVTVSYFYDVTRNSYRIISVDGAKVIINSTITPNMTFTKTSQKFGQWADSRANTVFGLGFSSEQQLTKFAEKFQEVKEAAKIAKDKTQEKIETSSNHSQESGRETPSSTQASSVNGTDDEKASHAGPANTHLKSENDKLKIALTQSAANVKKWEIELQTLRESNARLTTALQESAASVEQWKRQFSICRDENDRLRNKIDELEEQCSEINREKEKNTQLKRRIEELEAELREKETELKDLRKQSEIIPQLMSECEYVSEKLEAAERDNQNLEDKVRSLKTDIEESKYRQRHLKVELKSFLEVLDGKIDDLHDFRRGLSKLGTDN
UniProt Q00839, whole entry, looked up: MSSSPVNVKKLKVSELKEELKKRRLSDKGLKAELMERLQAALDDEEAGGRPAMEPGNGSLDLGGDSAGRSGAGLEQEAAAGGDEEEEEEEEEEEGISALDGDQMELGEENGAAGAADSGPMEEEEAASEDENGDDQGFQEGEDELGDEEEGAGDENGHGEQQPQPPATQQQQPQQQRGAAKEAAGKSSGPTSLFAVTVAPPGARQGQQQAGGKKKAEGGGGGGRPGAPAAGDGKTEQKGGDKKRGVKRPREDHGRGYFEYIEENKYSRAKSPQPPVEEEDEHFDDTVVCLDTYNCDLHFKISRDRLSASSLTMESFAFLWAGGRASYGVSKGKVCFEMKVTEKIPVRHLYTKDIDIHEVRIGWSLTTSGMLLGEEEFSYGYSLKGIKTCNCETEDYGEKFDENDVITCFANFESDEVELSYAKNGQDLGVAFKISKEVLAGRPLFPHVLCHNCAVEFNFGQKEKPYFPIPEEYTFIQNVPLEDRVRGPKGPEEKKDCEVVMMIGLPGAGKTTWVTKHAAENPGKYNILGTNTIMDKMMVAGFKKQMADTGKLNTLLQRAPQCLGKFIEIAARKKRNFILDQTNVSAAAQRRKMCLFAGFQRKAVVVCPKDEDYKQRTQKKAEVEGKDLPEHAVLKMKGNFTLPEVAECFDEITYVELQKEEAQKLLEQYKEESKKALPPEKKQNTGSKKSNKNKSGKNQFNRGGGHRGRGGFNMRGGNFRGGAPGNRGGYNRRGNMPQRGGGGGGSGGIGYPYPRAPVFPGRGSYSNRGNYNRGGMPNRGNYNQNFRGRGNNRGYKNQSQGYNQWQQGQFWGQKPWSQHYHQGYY
UniProt P41134: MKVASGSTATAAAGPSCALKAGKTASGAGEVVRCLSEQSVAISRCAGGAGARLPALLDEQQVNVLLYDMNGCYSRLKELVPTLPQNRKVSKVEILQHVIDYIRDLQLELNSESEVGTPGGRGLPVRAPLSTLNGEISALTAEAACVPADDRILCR
UniProt Q8IWL3: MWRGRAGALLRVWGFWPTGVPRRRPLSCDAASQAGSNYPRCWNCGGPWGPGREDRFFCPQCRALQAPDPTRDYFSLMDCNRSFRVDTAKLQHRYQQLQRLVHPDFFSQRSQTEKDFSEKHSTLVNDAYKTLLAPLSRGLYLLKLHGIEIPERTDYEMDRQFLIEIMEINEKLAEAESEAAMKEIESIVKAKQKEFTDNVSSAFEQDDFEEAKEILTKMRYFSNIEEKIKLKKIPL
UniProt Q96FZ2: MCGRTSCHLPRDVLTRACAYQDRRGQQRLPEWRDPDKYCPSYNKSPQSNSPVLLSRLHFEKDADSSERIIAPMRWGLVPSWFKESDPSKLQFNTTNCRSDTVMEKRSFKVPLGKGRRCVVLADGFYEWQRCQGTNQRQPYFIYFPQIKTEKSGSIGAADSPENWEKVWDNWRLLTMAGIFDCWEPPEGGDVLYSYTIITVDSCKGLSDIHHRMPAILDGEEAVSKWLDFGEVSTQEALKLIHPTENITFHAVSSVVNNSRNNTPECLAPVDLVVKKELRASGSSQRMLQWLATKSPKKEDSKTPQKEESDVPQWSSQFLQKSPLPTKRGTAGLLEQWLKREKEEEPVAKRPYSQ
UniProt Q92902: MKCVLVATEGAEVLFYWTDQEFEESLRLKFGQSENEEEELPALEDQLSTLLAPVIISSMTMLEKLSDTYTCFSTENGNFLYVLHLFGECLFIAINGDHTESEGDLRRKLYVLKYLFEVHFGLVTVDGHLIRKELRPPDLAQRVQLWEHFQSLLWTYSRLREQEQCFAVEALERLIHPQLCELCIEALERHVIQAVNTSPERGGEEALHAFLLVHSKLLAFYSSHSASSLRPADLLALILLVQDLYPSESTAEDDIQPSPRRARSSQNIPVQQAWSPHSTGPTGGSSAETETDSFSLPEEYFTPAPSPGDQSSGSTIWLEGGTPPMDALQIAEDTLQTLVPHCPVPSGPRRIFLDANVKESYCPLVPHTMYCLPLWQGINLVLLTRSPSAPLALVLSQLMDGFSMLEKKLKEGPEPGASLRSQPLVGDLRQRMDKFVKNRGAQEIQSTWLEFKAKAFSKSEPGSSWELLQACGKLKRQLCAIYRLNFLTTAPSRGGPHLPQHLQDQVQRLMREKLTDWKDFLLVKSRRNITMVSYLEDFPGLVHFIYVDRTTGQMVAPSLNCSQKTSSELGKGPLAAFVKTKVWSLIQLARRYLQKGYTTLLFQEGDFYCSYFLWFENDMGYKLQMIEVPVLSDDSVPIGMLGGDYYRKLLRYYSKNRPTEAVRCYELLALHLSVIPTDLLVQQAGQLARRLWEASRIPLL
UniProt Q00613: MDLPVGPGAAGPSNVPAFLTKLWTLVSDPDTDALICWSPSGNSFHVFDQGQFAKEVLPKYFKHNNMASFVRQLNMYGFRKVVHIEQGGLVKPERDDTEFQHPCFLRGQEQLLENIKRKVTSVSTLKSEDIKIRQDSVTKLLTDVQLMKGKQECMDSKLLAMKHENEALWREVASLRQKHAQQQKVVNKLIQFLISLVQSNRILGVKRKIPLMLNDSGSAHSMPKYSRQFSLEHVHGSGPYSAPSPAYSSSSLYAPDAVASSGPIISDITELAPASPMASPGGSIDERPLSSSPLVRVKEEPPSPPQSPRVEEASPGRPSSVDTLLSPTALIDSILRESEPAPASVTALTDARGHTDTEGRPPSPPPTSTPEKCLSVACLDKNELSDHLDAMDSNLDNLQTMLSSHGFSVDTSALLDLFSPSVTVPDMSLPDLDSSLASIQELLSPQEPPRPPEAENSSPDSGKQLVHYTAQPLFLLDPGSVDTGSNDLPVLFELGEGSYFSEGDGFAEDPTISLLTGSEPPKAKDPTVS

Compound: CC1=C(C2=C(C=C1)C(=O)C3=CC=CC=C3N2CCCN)C
Assay: log2 fold change, soluble protein after heating vs DMSO (PISA); higher = thermal stabilisation; K562 cells, 10 uM, 30 min; active = over 0.2 and 3.5 SD of the protein, either way, in both replicates (recomputed)
In short: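 Values are thermal stability changes relative to control samples and are taken from duplicates. They are stated as log2 fold changes. Before quantification by TMTpro 16plex LC-MS/MS with equalised channel sums, K562 cells at 2×10^6 cells/mL were treated with 10 μM compound for 30 min, heated in aliquots for 3 min across 48°C-58°C, pooled, extracted in PBS with 0.5% NP-40 at 4°C, and centrifuged at 21,000xg for 90 min to give the soluble supernatant.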

Row | Target | log2 fold change
1 | HPS4 isoform 4 (UniProt Q9NQG7) | inactive: 0.243
2 | HMBS (UniProt F5H226) | inactive: 0.104
3 | HOOK2 (UniProt Q96ED9) | inactive: 0.084
4 | HMGN5 (UniProt Q5JSK9) | inactive: 0.078
5 | HOMER2 (UniProt Q9NSB8) | inactive: 0.104
6 | HNRNPUL1 (UniProt M0R247) | inactive: 0.008
7 | HYOU1, A0A494C039 | inactive: -0.304
8 | HSP90AA2P (UniProt Q14568) | inactive: -0.202
9 | HNRNPU isoform 2 (UniProt Q00839) | inactive: -0.331
10 | ID1 (UniProt P41134) | inactive: 0.029
11 | HSCB (UniProt Q8IWL3) | inactive: -0.104
12 | HMCES (UniProt Q96FZ2) | inactive: 0.314
13 | HPS1 (UniProt Q92902) | inactive: 0.06
14 | HSF1 (UniProt Q00613) | inactive: -0.313

A stretch of the results above, for reference:
Row | Target | log2 fold change
10 | ID1 (UniProt P41134) | inactive: 0.029
11 | HSCB (UniProt Q8IWL3) | inactive: -0.104
